Experimental data reported in the supplement of paper PMC10849652.
The list shows a part of the results.

Chains of the proteins cited; added tags and fusions are not shown. Lines headed by an entry give the natural chain unless they say otherwise; changes in a name come on top.
UniProt Q9Y4Z0: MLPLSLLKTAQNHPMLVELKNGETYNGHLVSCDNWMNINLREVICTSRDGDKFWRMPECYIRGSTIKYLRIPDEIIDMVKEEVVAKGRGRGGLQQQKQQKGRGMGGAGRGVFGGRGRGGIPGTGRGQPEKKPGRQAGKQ
UniProt Q9UIQ6, whole entry, looked up: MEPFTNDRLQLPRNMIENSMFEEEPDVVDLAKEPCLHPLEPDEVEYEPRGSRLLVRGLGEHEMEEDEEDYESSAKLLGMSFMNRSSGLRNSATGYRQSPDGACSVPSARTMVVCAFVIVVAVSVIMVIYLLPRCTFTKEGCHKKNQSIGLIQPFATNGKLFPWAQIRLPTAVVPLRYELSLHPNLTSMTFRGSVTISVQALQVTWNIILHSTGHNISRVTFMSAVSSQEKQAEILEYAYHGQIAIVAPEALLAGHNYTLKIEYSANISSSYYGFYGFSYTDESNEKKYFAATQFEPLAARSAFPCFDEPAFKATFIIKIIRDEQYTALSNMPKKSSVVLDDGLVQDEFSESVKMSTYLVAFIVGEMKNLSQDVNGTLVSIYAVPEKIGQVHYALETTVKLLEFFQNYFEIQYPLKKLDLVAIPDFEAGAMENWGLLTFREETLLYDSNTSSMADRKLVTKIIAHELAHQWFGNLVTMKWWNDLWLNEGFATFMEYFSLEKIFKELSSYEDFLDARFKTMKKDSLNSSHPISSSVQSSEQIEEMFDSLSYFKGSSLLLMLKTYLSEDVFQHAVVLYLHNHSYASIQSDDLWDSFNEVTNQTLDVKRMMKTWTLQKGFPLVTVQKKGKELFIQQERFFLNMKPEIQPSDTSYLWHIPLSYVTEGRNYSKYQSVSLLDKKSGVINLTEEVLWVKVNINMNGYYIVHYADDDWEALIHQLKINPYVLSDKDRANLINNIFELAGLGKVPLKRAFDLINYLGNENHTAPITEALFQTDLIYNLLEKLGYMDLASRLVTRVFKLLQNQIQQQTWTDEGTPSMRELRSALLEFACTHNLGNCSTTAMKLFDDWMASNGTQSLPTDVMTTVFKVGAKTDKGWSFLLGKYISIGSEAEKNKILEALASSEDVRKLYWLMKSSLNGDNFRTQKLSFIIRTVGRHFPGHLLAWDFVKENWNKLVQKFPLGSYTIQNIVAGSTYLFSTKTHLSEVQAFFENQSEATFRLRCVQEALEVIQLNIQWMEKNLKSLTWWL
UniProt P49916: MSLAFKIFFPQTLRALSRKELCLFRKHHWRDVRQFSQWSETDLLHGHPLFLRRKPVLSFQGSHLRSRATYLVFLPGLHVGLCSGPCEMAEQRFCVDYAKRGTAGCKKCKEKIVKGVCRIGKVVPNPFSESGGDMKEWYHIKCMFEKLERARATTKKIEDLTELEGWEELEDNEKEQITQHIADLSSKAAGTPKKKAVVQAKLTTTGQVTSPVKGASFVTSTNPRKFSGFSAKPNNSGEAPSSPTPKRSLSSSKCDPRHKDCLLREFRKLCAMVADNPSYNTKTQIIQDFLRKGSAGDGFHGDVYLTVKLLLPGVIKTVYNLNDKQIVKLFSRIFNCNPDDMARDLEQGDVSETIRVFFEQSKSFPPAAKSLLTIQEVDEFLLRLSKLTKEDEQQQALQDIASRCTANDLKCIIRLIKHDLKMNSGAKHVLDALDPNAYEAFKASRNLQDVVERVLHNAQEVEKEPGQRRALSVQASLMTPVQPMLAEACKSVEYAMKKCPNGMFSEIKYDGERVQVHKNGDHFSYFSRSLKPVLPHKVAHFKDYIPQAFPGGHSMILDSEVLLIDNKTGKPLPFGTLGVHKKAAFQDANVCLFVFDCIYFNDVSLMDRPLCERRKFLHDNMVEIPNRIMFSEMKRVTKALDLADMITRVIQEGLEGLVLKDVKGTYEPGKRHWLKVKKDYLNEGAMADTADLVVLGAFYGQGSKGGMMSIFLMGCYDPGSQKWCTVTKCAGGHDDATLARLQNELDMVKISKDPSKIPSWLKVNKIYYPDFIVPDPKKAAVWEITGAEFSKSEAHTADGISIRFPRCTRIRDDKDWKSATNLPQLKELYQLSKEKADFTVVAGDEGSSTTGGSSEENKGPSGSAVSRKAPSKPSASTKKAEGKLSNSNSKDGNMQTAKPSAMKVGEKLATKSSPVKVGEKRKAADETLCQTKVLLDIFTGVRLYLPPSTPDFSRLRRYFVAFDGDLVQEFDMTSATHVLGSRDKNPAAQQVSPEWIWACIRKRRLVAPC
UniProt O15116: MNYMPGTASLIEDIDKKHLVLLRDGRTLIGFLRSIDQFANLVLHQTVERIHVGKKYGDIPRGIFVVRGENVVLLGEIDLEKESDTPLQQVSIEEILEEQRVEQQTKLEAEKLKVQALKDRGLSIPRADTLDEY
UniProt Q3MHD2: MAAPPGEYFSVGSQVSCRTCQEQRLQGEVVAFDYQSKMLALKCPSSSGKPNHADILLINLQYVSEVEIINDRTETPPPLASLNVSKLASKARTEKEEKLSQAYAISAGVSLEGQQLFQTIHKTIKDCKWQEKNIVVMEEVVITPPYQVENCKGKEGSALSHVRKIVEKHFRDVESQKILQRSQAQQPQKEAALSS
UniProt Q8IWT6: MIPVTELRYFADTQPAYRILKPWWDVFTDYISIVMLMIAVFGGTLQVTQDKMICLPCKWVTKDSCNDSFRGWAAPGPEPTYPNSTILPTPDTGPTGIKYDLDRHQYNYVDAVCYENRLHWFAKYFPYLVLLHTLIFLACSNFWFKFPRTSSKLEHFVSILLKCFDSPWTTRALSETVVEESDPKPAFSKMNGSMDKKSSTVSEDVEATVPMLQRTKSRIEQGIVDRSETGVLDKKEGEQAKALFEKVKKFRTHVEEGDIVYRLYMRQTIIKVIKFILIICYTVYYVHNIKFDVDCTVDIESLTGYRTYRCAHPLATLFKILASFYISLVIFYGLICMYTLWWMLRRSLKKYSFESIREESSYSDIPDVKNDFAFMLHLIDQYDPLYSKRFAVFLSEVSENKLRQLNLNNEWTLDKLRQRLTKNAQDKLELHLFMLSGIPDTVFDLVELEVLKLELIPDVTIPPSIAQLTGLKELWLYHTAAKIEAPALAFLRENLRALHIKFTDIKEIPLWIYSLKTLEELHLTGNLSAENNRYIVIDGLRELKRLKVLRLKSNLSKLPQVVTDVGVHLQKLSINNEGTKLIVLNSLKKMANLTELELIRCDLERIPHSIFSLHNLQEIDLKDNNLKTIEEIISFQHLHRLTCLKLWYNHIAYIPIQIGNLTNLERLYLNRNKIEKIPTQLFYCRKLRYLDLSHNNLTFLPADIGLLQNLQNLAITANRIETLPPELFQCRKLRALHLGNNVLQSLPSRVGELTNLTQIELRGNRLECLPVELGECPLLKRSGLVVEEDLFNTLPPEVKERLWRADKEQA
UniProt Q8NF37: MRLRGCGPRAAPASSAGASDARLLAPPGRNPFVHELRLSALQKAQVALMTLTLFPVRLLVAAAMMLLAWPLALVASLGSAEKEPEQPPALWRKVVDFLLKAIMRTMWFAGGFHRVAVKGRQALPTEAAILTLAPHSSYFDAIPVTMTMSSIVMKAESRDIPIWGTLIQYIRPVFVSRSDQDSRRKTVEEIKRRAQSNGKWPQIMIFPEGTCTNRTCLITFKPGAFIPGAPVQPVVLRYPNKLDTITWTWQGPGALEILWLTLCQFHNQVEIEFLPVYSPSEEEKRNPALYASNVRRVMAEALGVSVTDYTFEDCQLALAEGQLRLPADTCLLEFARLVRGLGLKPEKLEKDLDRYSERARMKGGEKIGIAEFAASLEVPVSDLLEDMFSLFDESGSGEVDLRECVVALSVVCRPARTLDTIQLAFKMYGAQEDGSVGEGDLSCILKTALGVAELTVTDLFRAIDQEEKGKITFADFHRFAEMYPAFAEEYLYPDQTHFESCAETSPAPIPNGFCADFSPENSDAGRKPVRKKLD
UniProt P48357: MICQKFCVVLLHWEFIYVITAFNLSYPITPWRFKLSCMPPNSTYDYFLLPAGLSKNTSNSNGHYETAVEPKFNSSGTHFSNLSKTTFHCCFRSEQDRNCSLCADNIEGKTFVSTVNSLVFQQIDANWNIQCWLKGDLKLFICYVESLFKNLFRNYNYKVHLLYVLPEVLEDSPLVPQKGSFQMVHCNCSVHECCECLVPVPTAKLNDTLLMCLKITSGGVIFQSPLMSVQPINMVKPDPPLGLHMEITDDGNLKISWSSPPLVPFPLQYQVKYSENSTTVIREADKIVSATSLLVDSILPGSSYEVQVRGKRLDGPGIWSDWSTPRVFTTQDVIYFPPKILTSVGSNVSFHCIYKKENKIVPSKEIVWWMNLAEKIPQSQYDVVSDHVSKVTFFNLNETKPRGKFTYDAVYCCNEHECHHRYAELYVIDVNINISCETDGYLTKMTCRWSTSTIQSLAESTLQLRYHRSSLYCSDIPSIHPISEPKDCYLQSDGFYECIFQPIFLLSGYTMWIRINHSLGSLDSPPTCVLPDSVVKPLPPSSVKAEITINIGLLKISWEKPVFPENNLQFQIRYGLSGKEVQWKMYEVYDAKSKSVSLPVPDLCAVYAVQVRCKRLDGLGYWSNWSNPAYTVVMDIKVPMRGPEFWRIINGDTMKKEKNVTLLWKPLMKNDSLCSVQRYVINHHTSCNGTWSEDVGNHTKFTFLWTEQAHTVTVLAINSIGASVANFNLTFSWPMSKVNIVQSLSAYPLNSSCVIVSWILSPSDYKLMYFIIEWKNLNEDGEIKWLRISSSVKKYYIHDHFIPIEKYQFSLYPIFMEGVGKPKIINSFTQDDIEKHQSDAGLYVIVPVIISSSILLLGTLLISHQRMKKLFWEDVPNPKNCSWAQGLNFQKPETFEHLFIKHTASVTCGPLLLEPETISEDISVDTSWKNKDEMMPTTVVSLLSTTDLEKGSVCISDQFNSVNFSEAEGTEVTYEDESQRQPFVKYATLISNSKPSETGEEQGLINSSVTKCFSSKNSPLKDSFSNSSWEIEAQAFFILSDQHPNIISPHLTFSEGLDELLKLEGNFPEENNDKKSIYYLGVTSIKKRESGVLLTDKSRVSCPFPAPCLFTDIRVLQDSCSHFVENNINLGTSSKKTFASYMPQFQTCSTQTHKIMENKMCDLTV
UniProt Q9NUP9: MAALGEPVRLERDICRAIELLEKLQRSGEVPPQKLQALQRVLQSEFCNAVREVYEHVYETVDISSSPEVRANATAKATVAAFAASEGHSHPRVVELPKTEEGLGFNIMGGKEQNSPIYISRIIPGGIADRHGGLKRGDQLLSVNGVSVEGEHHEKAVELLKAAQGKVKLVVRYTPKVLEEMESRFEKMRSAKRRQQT
UniProt P48059, whole entry, looked up: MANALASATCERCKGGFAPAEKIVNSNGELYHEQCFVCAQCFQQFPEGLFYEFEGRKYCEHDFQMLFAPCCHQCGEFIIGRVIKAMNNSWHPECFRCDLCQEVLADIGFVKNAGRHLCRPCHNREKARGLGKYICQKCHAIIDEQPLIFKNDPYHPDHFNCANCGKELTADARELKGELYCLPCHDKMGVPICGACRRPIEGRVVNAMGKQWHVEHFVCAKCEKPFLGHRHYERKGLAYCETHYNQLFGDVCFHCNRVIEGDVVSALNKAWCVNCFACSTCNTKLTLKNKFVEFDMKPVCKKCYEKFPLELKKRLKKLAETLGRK
UniProt Q9H008: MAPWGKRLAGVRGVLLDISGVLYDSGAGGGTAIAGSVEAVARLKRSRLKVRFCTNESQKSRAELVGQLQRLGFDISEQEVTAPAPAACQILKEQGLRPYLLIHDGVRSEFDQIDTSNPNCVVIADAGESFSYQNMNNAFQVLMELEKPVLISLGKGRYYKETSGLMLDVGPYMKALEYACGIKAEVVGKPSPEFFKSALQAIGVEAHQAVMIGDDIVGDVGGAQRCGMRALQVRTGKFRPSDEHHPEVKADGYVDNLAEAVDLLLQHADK
UniProt Q6MZP7: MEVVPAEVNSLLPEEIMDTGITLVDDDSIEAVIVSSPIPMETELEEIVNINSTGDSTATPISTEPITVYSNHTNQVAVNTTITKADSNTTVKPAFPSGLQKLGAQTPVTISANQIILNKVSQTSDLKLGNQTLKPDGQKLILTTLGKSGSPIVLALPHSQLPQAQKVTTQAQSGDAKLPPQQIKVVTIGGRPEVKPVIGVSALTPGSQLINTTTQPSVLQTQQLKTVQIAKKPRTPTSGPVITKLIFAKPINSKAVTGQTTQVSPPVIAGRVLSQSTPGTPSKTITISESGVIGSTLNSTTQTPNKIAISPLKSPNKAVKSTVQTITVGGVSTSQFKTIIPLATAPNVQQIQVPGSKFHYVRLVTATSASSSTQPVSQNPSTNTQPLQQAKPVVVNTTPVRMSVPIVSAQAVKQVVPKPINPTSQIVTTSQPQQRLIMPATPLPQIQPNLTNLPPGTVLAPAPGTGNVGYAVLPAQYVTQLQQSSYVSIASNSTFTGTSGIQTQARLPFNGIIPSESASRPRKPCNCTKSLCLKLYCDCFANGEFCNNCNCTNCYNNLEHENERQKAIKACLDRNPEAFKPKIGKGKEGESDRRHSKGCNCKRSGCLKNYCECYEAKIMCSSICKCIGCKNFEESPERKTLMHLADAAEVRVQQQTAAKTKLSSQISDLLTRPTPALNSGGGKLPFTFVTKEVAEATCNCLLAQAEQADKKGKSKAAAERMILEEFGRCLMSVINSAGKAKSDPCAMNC

Columns and labels:
Assay in all cases: log2 fold change, soluble protein after heating vs DMSO (PISA); higher = thermal stabilisation; K562 lysate, 10 uM; active = over 0.2 and 3.5 SD of the protein, either way, in both replicates (recomputed)
alvocidib = compound: CN1CC[C@H](c2c(O)cc(O)c3c(=O)cc(-c4ccccc4Cl)oc23)[C@H](O)C1 [alvocidib]
Outline: (§1)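 The values are log-two fold changes in thermal stability compared with solvent controls and come from duplicates. They were obtained by TMTpro 16plex LC-MS/MS, with channel sums equalised, on the supernatant after 21,000xg for 90 min. That supernatant came from crude K562 extract at 1 mg/mL protein treated with 10 μM compound for 30 min, heated for 3 min across 48°C-58°C, pooled and brought to 0.5% NP-40 at 4°C.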

Tubastatin A = compound: CN1CCc2c(c3ccccc3n2Cc2ccc(C(=O)NO)cc2)C1 [Tubastatin A]
Outline: as §1

[1] = compound: CNC(=O)C1=CC=CC=C1NC2=NC(=NC=C2Cl)NC3=C(C=C(C=C3)N4CCOCC4)OC
Outline: as §1

defactinib = compound: CNC(=O)c1ccc(Nc2ncc(C(F)(F)F)c(NCc3nccnc3N(C)S(C)(=O)=O)n2)cc1 [defactinib]
Outline: as §1

[2] = compound: CNc1nc(-c2ccc3c(N)n[nH]c3c2)cc(N2C[C@@H](C(=O)NC3CCCCC3)CC[C@H]2C)n1
Outline: as §1

encorafenib = compound: COC(=O)N[C@@H](C)CNc1nccc(-c2cn(C(C)C)nc2-c2cc(Cl)cc(NS(C)(=O)=O)c2F)n1 [encorafenib]
Outline: as §1

[3] = compound: COC(=O)[C@H](CCSC)NC(=O)C1=C(C=C(C=C1)NC[C@H](CS)N)C2=CC=CC=C2
Outline: as §1

alisertib = compound: COc1cc(Nc2ncc3c(n2)-c2ccc(Cl)cc2C(c2c(F)cccc2OC)=NC3)ccc1C(=O)O [alisertib]
Outline: as §1

[4] = compound: COc1cc2nc(-c3cc(F)ccc3O)nc(N[C@@H]3CNC[C@H]3C(C)(C)O)c2cc1OC
Outline: as §1

gefitinib = compound: COc1cc2ncnc(Nc3ccc(F)c(Cl)c3)c2cc1OCCCN1CCOCC1 [gefitinib]
Outline: as §1

lapatinib = compound: CS(=O)(=O)CCNCc1ccc(-c2ccc3ncnc(Nc4ccc(OCc5cccc(F)c5)c(Cl)c4)c3c2)o1 [lapatinib]
Outline: as §1

pictilisib = compound: CS(=O)(=O)N1CCN(Cc2cc3nc(-c4cccc5[nH]ncc45)nc(N4CCOCC4)c3s2)CC1 [pictilisib]
Outline: as §1

crizotinib = compound: C[C@@H](Oc1cc(-c2cnn(C3CCNCC3)c2)cnc1N)c1c(Cl)ccc(F)c1Cl [crizotinib]
Outline: as §1

[5] = compound: C[C@H](C1=CC=C(C=C1)C(=O)NC2=C3C=CNC3=NC=C2)N
Outline: as §1

duvelisib = compound: C[C@H](Nc1ncnc2nc[nH]c12)c1cc2cccc(Cl)c2c(=O)n1-c1ccccc1 [duvelisib]
Outline: as §1

gandotinib = compound: Cc1cc(Nc2cc(CN3CCOCC3)c3nc(C)c(Cc4ccc(Cl)cc4F)n3n2)n[nH]1 [gandotinib]
Outline: as §1

tozasertib = compound: Cc1cc(Nc2cc(N3CCN(C)CC3)nc(Sc3ccc(NC(=O)C4CC4)cc3)n2)n[nH]1 [tozasertib]
Outline: as §1

doramapimod = compound: Cc1ccc(-n2nc(C(C)(C)C)cc2NC(=O)Nc2ccc(OCCN3CCOCC3)c3ccccc23)cc1 [doramapimod]
Outline: as §1

bafetinib = compound: Cc1ccc(NC(=O)c2ccc(CN3CC[C@H](N(C)C)C3)c(C(F)(F)F)c2)cc1Nc1nccc(-c2cncnc2)n1 [bafetinib]
Outline: as §1

[6] = compound: Cc1cccc(CC(=O)N2CCc3c2ccc(-c2cn(C)c4ncnc(N)c24)c3F)n1
Outline: as §1

Measured: log2 fold change

LSM4 (UniProt Q9Y4Z0)
inactive: alvocidib -0.017 | Tubastatin A 0.024 | [1] 0.001 | defactinib -0.031 | [2] 0.013 | encorafenib -0.004 | [3] -0.044 | alisertib -0.032 | [4] 0.011 | gefitinib -0.02 | lapatinib 0.02 | pictilisib 0.013 | crizotinib 0.024 | [5] -0.019 | duvelisib -0.002 | gandotinib 0.043 | tozasertib -0.031 | doramapimod -0.023 | bafetinib 0.036 | [6] 0.043

LNPEP (UniProt Q9UIQ6)
inactive: alvocidib -0.013 | Tubastatin A 0.02 | [1] 0.019 | defactinib 0.028 | [2] 0.006 | encorafenib 0.035 | [3] -0.101 | alisertib -0.007 | [4] 0.013 | gefitinib 0.013 | lapatinib 0.008 | pictilisib -0.031 | crizotinib -0.02 | [5] -0.055 | duvelisib 0.001 | gandotinib 0.043 | tozasertib -0.022 | doramapimod 0.013 | bafetinib -0.013 | [6] 0

LIG3 (UniProt P49916)
inactive: alvocidib -0.017 | Tubastatin A -0.142 | [1] 0.007 | defactinib 0.006 | [2] -0.002 | encorafenib 0.023 | [3] 0.121 | alisertib -0.009 | [4] -0.008 | gefitinib -0.015 | lapatinib -0.007 | pictilisib 0.006 | crizotinib -0.044 | [5] -0.008 | duvelisib 0.01 | gandotinib -0.05 | tozasertib -0.004 | doramapimod 0.016 | bafetinib -0.046 | [6] 0.016

LSM1 (UniProt O15116)
inactive: alvocidib -0.005 | Tubastatin A 0.014 | [1] 0.064 | defactinib 0.075 | [2] -0.007 | encorafenib -0.016 | [3] -0.022 | alisertib 0.001 | [4] -0.042 | gefitinib -0.115 | lapatinib 0.033 | pictilisib -0.033 | crizotinib 0.104 | [5] 0.017 | duvelisib -0.016 | gandotinib 0.03 | tozasertib -0.012 | doramapimod 0 | bafetinib 0.054 | [6] -0.045

LSM12 (UniProt Q3MHD2)
inactive: alvocidib 0.031 | Tubastatin A 0.028 | [1] 0.001 | defactinib 0.073 | [2] 0.057 | encorafenib 0.02 | [3] -0.027 | alisertib -0.001 | [4] -0.019 | gefitinib 0.018 | lapatinib 0.021 | pictilisib -0.01 | crizotinib -0.003 | [5] 0.023 | duvelisib 0.023 | gandotinib 0.008 | tozasertib 0.015 | doramapimod -0.009 | bafetinib 0.044 | [6] -0.038

LRRC8A (UniProt Q8IWT6)
inactive: alvocidib -0.015 | Tubastatin A 0.005 | [1] 0.011 | defactinib -0.036 | [2] -0.058 | encorafenib 0.022 | [3] -0.007 | alisertib 0.042 | [4] 0.057 | gefitinib -0.044 | lapatinib -0.044 | pictilisib -0.001 | crizotinib 0.035 | [5] 0.079 | duvelisib 0.031 | gandotinib -0.046 | tozasertib -0.077 | doramapimod -0.051 | bafetinib -0.04 | [6] 0

LPCAT1 (UniProt Q8NF37)
inactive: alvocidib -0.117 | Tubastatin A 0.117 | [1] 0.067 | defactinib 0.045 | [2] 0.097 | encorafenib 0.037 | [3] -0.063 | alisertib 0.07 | [4] -0.01 | gefitinib -0.009 | lapatinib 0.005 | pictilisib -0.034 | crizotinib -0.031 | [5] -0.209 | duvelisib -0.107 | gandotinib 0.115 | tozasertib 0.006 | doramapimod -0.048 | bafetinib -0.072 | [6] 0.078

LEPR (UniProt P48357)
inactive: alvocidib -0.02 | Tubastatin A 0.061 | [1] -0.04 | defactinib 0.004 | [2] -0.076 | encorafenib 0.058 | [3] -0.05 | alisertib -0.044 | [4] -0.159 | gefitinib 0.007 | lapatinib -0.019 | pictilisib 0.009 | crizotinib 0.065 | [5] -0.106 | duvelisib -0.013 | gandotinib 0.034 | tozasertib 0.041 | doramapimod -0.02 | bafetinib 0.036 | [6] 0.1

Reprinted from above (2 entries):
LRRC8A (UniProt Q8IWT6)
inactive: alvocidib -0.015 | Tubastatin A 0.005 | [1] 0.011 | defactinib -0.036 | [2] -0.058 | encorafenib 0.022 | [3] -0.007 | alisertib 0.042 | [4] 0.057 | gefitinib -0.044 | lapatinib -0.044 | pictilisib -0.001 | crizotinib 0.035 | [5] 0.079 | duvelisib 0.031 | gandotinib -0.046 | tozasertib -0.077 | doramapimod -0.051 | bafetinib -0.04 | [6] 0

LPCAT1 (UniProt Q8NF37)
inactive: alvocidib -0.117 | Tubastatin A 0.117 | [1] 0.067 | defactinib 0.045 | [2] 0.097 | encorafenib 0.037 | [3] -0.063 | alisertib 0.07 | [4] -0.01 | gefitinib -0.009 | lapatinib 0.005 | pictilisib -0.034 | crizotinib -0.031 | [5] -0.209 | duvelisib -0.107 | gandotinib 0.115 | tozasertib 0.006 | doramapimod -0.048 | bafetinib -0.072 | [6] 0.078

Following part

LIN9 isoform 2 (UniProt Q5TKA1)
inactive: alvocidib 0.006 | Tubastatin A 0.027 | [1] 0.018 | defactinib -0.012 | [2] -0.036 | encorafenib 0.015 | [3] -0.075 | alisertib -0.048 | [4] 0.004 | gefitinib 0.016 | lapatinib 0.043 | pictilisib 0.064 | crizotinib -0.026 | [5] -0.004 | duvelisib -0.012 | gandotinib -0.086 | tozasertib 0.053 | doramapimod 0.014 | bafetinib -0.017 | [6] -0.015

LIN7C (UniProt Q9NUP9)
inactive: alvocidib 0.039 | Tubastatin A 0.004 | [1] 0.1 | defactinib -0.014 | [2] -0.027 | encorafenib -0.018 | [3] -0.043 | alisertib 0.002 | [4] 0.003 | gefitinib 0.009 | lapatinib -0.01 | pictilisib 0 | crizotinib 0.057 | [5] -0.012 | duvelisib 0 | gandotinib -0.013 | tozasertib 0.032 | doramapimod 0.029 | bafetinib -0.004 | [6] 0.006

LIMS1 isoform 3 (UniProt P48059)
inactive: alvocidib -0.014 | Tubastatin A 0.034 | [1] 0.017 | defactinib 0.048 | [2] 0.02 | encorafenib 0.004 | [3] -0.118 | alisertib 0.011 | [4] -0.003 | gefitinib -0.097 | lapatinib 0.002 | pictilisib -0.019 | crizotinib 0.103 | [5] -0.045 | duvelisib -0.023 | gandotinib 0.008 | tozasertib -0.02 | doramapimod -0.068 | bafetinib -0.035 | [6] 0.038

LHPP (UniProt Q9H008)
inactive: alvocidib -0.017 | Tubastatin A 0.047 | [1] -0.068 | defactinib -0.008 | [2] -0.023 | encorafenib -0.016 | [3] -0.097 | alisertib 0.005 | [4] 0.052 | gefitinib -0.06 | lapatinib -0.045 | pictilisib -0.05 | crizotinib -0.015 | [5] -0.072 | duvelisib 0.023 | gandotinib 0.042 | tozasertib -0.101 | doramapimod 0.009 | bafetinib 0.027 | [6] -0.03

LIG1 (UniProt P18858)
inactive: alvocidib -0.013 | Tubastatin A -0.002 | [1] -0.008 | defactinib -0.01 | [2] -0.026 | encorafenib 0.005 | [3] 0.016 | alisertib 0.009 | [4] 0.008 | gefitinib 0.02 | lapatinib -0.034 | pictilisib 0.017 | crizotinib -0.012 | [5] 0.065 | duvelisib -0.017 | gandotinib -0.061 | tozasertib -0.009 | doramapimod 0.003 | bafetinib -0.018 | [6] 0.008

LMTK2 (UniProt Q8IWU2)
inactive: alvocidib -0.018 | Tubastatin A 0.014 | [1] 0.013 | defactinib -0.067 | [2] -0.037 | encorafenib 0.028 | [3] 0.05 | alisertib -0.043 | [4] 0.046 | gefitinib -0.102 | lapatinib -0.019 | pictilisib -0.059 | crizotinib -0.025 | [5] -0.015 | duvelisib 0.105 | gandotinib -0.016 | tozasertib 0.03 | doramapimod 0.004 | bafetinib 0.038 | [6] 0.033

LDHA isoform 3 (UniProt P00338)
inactive: alvocidib 0.026 | Tubastatin A 0.043 | [1] -0.005 | defactinib -0.001 | [2] 0.013 | encorafenib -0.036 | [3] -0.019 | alisertib 0.01 | [4] -0.001 | gefitinib -0.005 | lapatinib 0.005 | pictilisib -0.002 | crizotinib -0.008 | [5] 0.006 | duvelisib -0.001 | gandotinib 0.02 | tozasertib -0.014 | doramapimod 0.031 | bafetinib 0.081 | [6] -0.021

LIN54 (UniProt Q6MZP7)
inactive: alvocidib -0.029 | Tubastatin A -0.014 | [1] 0 | defactinib -0.058 | [2] 0.025 | encorafenib -0.002 | [3] 0.052 | alisertib -0.029 | [4] 0.108 | gefitinib -0.102 | lapatinib -0.042 | pictilisib -0.056 | crizotinib -0.02 | [5] -0.029 | duvelisib 0.038 | gandotinib 0.011 | tozasertib 0.019 | doramapimod -0.033 | bafetinib -0.082 | [6] 0.085
